Assay results as given in US20100056636A1, “N-Substituted-P-Menthane-3-Carboxamide and Uses Thereof” (priority 2006, published 2010).

Experiment: Odor of the tested chemicals (Table I)
Set-up: species or system human

Compound	Odor
CC1CCC(C(C)C)C(C(=O)NCC(O)c2ccccc2)C1 (stereo not shown) [Example 1, 2-isopropyl-5-methyl-cyclohexanecarboxylic acid (2-hydroxy-2-phenylethyl)-amide]	None
CC1CCC(C(C)C)C(C(=O)NCCc2ccccc2)C1 (stereo not shown) [Example 2, 2-isopropyl-5-methyl-cyclohexanecarboxylic acid phenylethyl-amide]	None
CCOc1ccccc1CCNC(=O)C1CC(C)CCC1C(C)C (stereo not shown) [Example 5, N-(2-ethoxyphenethyl)-2-isopropyl-5-methylcyclohexane-carboxamide]	None
CC1CCC(C(C)C)C(C(=O)N[C@H]2C[C@H]2c2ccccc2)C1 (stereo partly drawn) [Example 6, 2-isopropyl-5-methyl-N-((1S,2S)-2-phenylcyclopropyl)-cyclohexanecarboxamide]	None
CCNC(=O)C1CC(C)CCC1C(C)C (stereo not shown) [WS-3, N-Ethyl-p-menthane-3-carboxamide, reference compound]	None
CC1CCC(C(C)C)C(O)C1 (stereo not shown) [menthol, reference compound]	Minty
N-(3,4-dimethylphenethyl)-2-isopropyl-5-ethylcyclo-hexanecarboxamide [Example 7]	None
